Reference: patent publication US20220168402A1, “PIP4Ks SUPPRESS INSULIN SIGNALING AND ENHANCE IMMUNE FUNCTION THROUGH A CATALYTIC-INDEPENDENT MECHANISM” (Cornell University, priority 2019, published 2022)
Results are given in words; binding and its absence hold for the method and conditions named. In cells and extracts the contact can be indirect. Some binding calls cover weakened binding; strength is not graded here. Sequences can lack the tags named with a protein.

Amino acid sequences for entries named in this document (tags omitted).
UniProt Q99755: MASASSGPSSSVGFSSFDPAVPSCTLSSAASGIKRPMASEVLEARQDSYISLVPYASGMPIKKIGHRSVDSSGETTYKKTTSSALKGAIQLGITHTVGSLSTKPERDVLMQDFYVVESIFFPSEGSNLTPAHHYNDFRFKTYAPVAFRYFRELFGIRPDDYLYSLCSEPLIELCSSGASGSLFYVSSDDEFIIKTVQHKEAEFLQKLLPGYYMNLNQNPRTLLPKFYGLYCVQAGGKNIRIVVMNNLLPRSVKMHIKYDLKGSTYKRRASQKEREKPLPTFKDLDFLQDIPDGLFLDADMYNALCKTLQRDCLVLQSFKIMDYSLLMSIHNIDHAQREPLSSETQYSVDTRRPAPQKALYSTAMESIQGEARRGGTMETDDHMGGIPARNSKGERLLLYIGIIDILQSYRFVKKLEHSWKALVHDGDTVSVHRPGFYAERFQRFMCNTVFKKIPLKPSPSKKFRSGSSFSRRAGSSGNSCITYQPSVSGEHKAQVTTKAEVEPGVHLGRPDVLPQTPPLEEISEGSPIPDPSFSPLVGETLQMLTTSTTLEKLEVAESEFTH

Legend:
[1] = target: endogenous PIP5K1A (293T lysate) (UniProt Q99755); assay: GST pulldown from 293T lysates, GST or GST-PIP4K2C beads as bait, western blot (FIG. 3G)
[2] = target: endogenous PIP5K1A (293T lysate) (UniProt Q99755); assay: GST pulldown from 293T lysates, GST-PIP4K2C beads as bait, western blot (FIG. 3J)
[3] = target: endogenous PIP5K1A (293T lysate) (UniProt Q99755); assay: GST pulldown from 293T lysates, western blot of pulldown and flow-through (FIG. 3G-3H)

Measured: binding

B1: GST-PIP4K2C (enzyme, not shown: a dimerising Fc or GST)
chain: MASSSVPPATVSAATAGPGPGFGFASKTKKKHFVQQKVKVFRAADPLVGVFLWGVAHSINELSQVPPPVMLLPDDFKASSKIKVNNHLFHRENLPSHFKFKEYCPQVFRNLRDRFGIDDQDYLVSLTRNPPSESEGSDGRFLISYDRTLVIKEVSSEDIADMHSNLSNYHQYIVKCHGNTLLPQFLGMYRVSVDNEDSYMLVMRNMFSHRLPVHRKYDLKGSLVSREASDKEKVKELPTLKDMDFLNKNQKVYIGEEEKKIFLEKLKRDVEFLVQLKIMDYSLLLGIHDIIRGSEPEEEAPVREDESEVDGDCSLTGPPALVGSYGTSPEGIGGYIHSHRPLGPGEFESFIDVYAIRSAEGAPQKEVYFMGLIDILTQYDAKKKAAHAAKTVKHGAGAEISTVHPEQYAKRFLDFITNIFA
binds: all assays above
